Assay results taken from US20210155689A1 (SHANGHAI PHARMAEXPLORER, published 2021).
Residue numbers refer to the chain shown, from its start. Results are given in words; binding and its absence hold for the method and conditions named. Some entries that bind do so weakly or less than the wild type.

T1: human LAG-3 ECD (antigen protein of the affinity test) (human) (UniProt P18627)
T1 sequence: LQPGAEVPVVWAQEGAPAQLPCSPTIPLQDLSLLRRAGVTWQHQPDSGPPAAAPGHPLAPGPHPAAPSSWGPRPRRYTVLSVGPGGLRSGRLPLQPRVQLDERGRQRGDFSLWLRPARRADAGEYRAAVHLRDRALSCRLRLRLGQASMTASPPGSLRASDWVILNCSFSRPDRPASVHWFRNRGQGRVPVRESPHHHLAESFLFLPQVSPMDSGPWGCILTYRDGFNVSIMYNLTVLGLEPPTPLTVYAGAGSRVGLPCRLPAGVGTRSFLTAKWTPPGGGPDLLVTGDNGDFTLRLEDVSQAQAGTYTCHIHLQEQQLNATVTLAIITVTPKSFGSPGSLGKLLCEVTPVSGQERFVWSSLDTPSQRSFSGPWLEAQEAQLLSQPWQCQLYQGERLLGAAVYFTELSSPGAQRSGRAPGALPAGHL

B1: 556F6B8 (LAG-3 mouse-human chimeric antibody) (antibody, V domains shown)
VH: RVQLKQSGPGLVQPSQSLSITCTVSGFSLIKYGVHWVRQSPGEGLEWLGVIWRGGITDYNAAFMSRLSITKDNSKSQVFFKMNSLQADDTAIYYCAKWDGPLAMDYWGQGTSVTVSS
VL: DIVMTQSHKFLSTSVGDRVSITCKASQDVGTTVAWYQQKPGQSPKLLIYWASTRHTGVPDRFTGSGSGTDFTLTISNVQSEDLADYFCQQYSSYPYTFGGGTKLEIK
notes: also called 556F8B8
B2: 105F1E10 (LAG-3 mouse-human chimeric antibody) (antibody, V domains shown)
VH: EVQLQQSGPELVKPGASVKMSCRASGYTFTDFKMHWMKQSHGKSLEWIGYIAPNNGGTAYNQKFRGKATLTVNESSNTAYMELRSLTSEDSAVYYCVDWDDVDYWGQGTTLTVSS
VL: DIKMTQSPSSMYASLGERVTITCKASQDINSYLSWFQQKSGKSPKTLIYRANRLVDGVPSRFSGSGSGQDYSLTISSLEYEDMGIYYCLQYVEFPLTFGAGTKLELK
B3: 405B8H3 (LAG-3 mouse-human chimeric antibody) (antibody, V domains shown)
VH: QVQLQQSGAELVRPGASVTLSCKASGYTFTDYEMHWVKQTPVHGLEWIGATDPETGNSAYNQKFKGKAIMTADKSSSTAYMELRSLTSEDSAVYYCISTGWNDWGQGTSLTVSS
VL: B2 VL with S40P, N52D, V55L, E81G, V92D, L96Y, A100G, L106I
notes: also called mouse-human chimeric antibody 405B8H3
B4: 556F6B8-3 humanized antibody (antibody, V domains shown)
VH: QVQLQESGPGLVKPSETLSLTCTVSGFSLIKYGVHWIRQPPGKGLEWIGVIWRGGITDYNAAFMSRVTISKDTSKSQVSLKLSSVTAADTAVYYCARWDGPLAMDYWGQGTTVTVSS
VL: DIQLTQSPSFLSASVGDRVTITCKASQDVGTTVAWYQQKPGKAPKLLIYWASTRHTGVPSRFSGSGSGTEFTLTISSLQPEDFATYYCQQYSSYPYTFGQGTKLEIK
B5: 556F6B8-7 humanized antibody (antibody, V domains shown)
VH: B4 VH
VL: B4 VL with Q3V
B6: 405B8H3-2 humanized antibody (antibody, V domains shown)
VH: QVQLVQSGAEVKKPGASVKVSCKASGYTFTDYEMHWVRQAPGQGLEWMGATDPETGNSAYNQKFKGRVTMTADKSTSTVYMELSSLRSEDTAVYYCISTGWNDWGQGTTVTVSS
VL: DIQMTQSPSSLSASVGDRVTITCKASQDINSYLSWFQQKPGKAPKSLIYRADRLLDGVPSRFSGSGSGTDFTLTISSLQPEDFATYYCLQYDEFPYTFGQGTKLEIK
B7: 405B8H3-6 humanized antibody (antibody, V domains shown)
VH: B6 VH
VL: B6 VL with T69Q, F71Y
B8: 405B8H3-7 humanized antibody (antibody, V domains shown)
VH: B6 VH with M48I, V68A, V79A
VL: B6 VL with T69Q, F71Y
B9: 405B8H3-1 humanized antibody (antibody, V domains shown)
VH: B6 VH with A72R, K74T
VL: B6 VL

What follows are binders tested against T1, human LAG-3 ECD (antigen protein of the affinity test) (human) (assay: SPR, antibody captured by anti-human Fc IgG on CM5).

Row | Binder | binding
1 | B1 | binds
2 | B2 | binds
3 | B3 | binds
4 | B4 | binds
5 | B5 | binds
6 | B6 | binds
7 | B7 | binds
8 | B8 | binds
9 | B9 | binds
